Assay results reported in patent US20040009147A1.
These are yes or no findings as the source states them, for the method shown. Sequences can lack the tags named with a protein.

Columns and labels:
Assay in all cases: immunoprecipitation with anti-Flag agarose, western blot with anti-poly(His)6
[1] = target: TL-7, Flag-tagged soluble protein
[2] = target: TL-3, Flag-tagged soluble protein
[3] = target: TL-6, Flag-tagged soluble protein

Measured: binding

B1: TR6-(His), recombinant TR6 (DcR3) with hexa-histidine at the C-terminus (receptor)
chain: VAETPTYPWRDAETGERLVCAQCPPGTFVQRPCRRDSPTTCGPCPPRHYTQFWNYLERCRYCNVLCGEREEEARACHATHNRACRCRTGFFAHAGFCLEHASCPPGAGVIAPGTPSQNTQCQPCPPGTFSASSSSSEQCQPHRNCTALGLALNVPGSSSHDTLCTSCTGFPLSTRVPGAEECERAVIDFVAFQDISIKRLQRLLQALEAPEGWGPTPRAGRAALQLKLRRRLTELLGAQDGALLVRLLQALRVARMPGLERSVRERFLPVHHHHHHH
no binding: [1] | [2] | [3]
